Source: PubChem BioAssay AID1508597 (Cure First, 2020)
This is an unselected part of the about 2,100 reagents, in one setting of the screen. 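Calls flag viability under 80% in either arm, not effects specific to rucaparib; the reference for percent is not stated.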 Some reagents were tested in more than one well and are listed for each. Not given: the 100% reference.

Screen: 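Knock-downs altering ovarian cancer cell survival with or without PARP inhibitor rucaparib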 (primary screen)
System: human ovarian carcinoma lines grown from tumours: OCI-P5x (papillary serous) and OCI-C5x (clear cell)
Reagent: siRNA pool against human genes, 1.25 pmol siRNA per well
Time to read-out: 72 h or 96 h, depending on the cell culture
Conditions: rucaparib 20 µM (about IC30) or vehicle, present until read-out
Rucaparib or vehicle: Vehicle
Cell line: OCI-P5x (serous)
Measured: 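Luminescent ATP-based viability assay read 72 or 96 h after transfection, depending on culture, given as normalised percent viability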
Scale: viability, normalised: higher = more viable cells remaining
Call rule: 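Active when normalised viability falls below 80 percent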
Meaning of the calls: active = viability under 80%; inactive = viability 80% or more

gene knocked down	technical replicate	viability, normalised (%)	Outcome
KLF6 (KLF transcription factor 6)	1	58.7	active
KLF6 (KLF transcription factor 6)	2	85	inactive
KLF6 (KLF transcription factor 6)	3	80.6	inactive
CDK17 (cyclin dependent kinase 17)	1	96.4	inactive
CDK17 (cyclin dependent kinase 17)	2	82.8	inactive
CDK17 (cyclin dependent kinase 17)	3	105	inactive
ZSCAN21 (zinc finger and SCAN domain containing 21)	1	89.6	inactive
ZSCAN21 (zinc finger and SCAN domain containing 21)	2	84.7	inactive
ZSCAN21 (zinc finger and SCAN domain containing 21)	3	83.1	inactive
MYBL1 (MYB proto-oncogene like 1)	1	55.4	active
MYBL1 (MYB proto-oncogene like 1)	2	56.3	active
MYBL1 (MYB proto-oncogene like 1)	3	59.2	active
DDX55 (DEAD-box helicase 55)	1	71	active
DDX55 (DEAD-box helicase 55)	2	66.7	active
DDX55 (DEAD-box helicase 55)	3	87.8	inactive
MAP3K1 (mitogen-activated protein kinase kinase kinase 1)	1	82.2	inactive
MAP3K1 (mitogen-activated protein kinase kinase kinase 1)	2	71.6	active
MAP3K1 (mitogen-activated protein kinase kinase kinase 1)	3	63	active
SLK (STE20 like kinase)	1	65.9	active
SLK (STE20 like kinase)	2	70.3	active
SLK (STE20 like kinase)	3	63.4	active
GTF2H3 (general transcription factor IIH subunit 3)	1	48.8	active
GTF2H3 (general transcription factor IIH subunit 3)	2	67.9	active
GTF2H3 (general transcription factor IIH subunit 3)	3	60.4	active
SIRT6 (sirtuin 6)	1	55.5	active
SIRT6 (sirtuin 6)	1	105	inactive
SIRT6 (sirtuin 6)	2	67.6	active
SIRT6 (sirtuin 6)	2	77.8	active
SIRT6 (sirtuin 6)	3	85.5	inactive
SIRT6 (sirtuin 6)	3	78.4	active
UBR2 (ubiquitin protein ligase E3 component n-recognin 2)	1	58	active
UBR2 (ubiquitin protein ligase E3 component n-recognin 2)	2	68.7	active
UBR2 (ubiquitin protein ligase E3 component n-recognin 2)	3	69.2	active
PRMT6 (protein arginine methyltransferase 6)	1	49.1	active
PRMT6 (protein arginine methyltransferase 6)	2	55.8	active
PRMT6 (protein arginine methyltransferase 6)	3	82.3	inactive
BAZ1B (bromodomain adjacent to zinc finger domain 1B)	1	59.4	active
BAZ1B (bromodomain adjacent to zinc finger domain 1B)	2	73.9	active
BAZ1B (bromodomain adjacent to zinc finger domain 1B)	3	72.2	active

Records listed so far whose target name begins with U or u (3):
gene knocked down	technical replicate	viability, normalised (%)	Outcome
UBR2 (ubiquitin protein ligase E3 component n-recognin 2)	1	58	active
UBR2 (ubiquitin protein ligase E3 component n-recognin 2)	2	68.7	active
UBR2 (ubiquitin protein ligase E3 component n-recognin 2)	3	69.2	active
